# Source: US7812042B2, “Pharmaceutical compositions and therapeutic applications for the use of a novel vitamin B12 derivative, N-acetyl-L-cysteinylcobalamin” (priority 2006, dated 2010)
# Some results were stated once for a whole list of compounds, not compound by compound.
# System: SK-HEP-1 cells
# Assay: Effect of high concentrations of NACCbl and GSCbl on SK-HEP-1 cells (MTS assay)
# Format: cell-based, Human
# Conditions: SK-HEP-1, 24 hours
smiles,measurement,value
"CC(=O)NC(C[S-])C(=O)O.CC1=C2N=C(C=C3N=C(C(C)=C4[N-]C(C(CC(N)=O)C4(C)CCC(=O)NCC(C)OP(=O)([O-])OC4C(CO)OC(n5cnc6cc(C)c(C)cc65)C4O)C4(C)N=C1C(CCC(N)=O)C4(C)CC(N)=O)C(CCC(N)=O)C3(C)C)C(CCC(N)=O)C2(C)CC(N)=O.[Co+3] [NACCbl, N-acetyl-L-cysteinylcobalamin]",concentration above which cell viability was affected,above 0.2 mM
